# Test results reported in the supplement of paper PMC3334620.
# Whole data set: some 33,000 sequences, median “E-score (-0.5 to 0.5)” near -0.015, cut for the highest 2% near 0.3. Some of the results follow.
# Target: T1, Abf1 (UniProt P14164)
# T1 sequence: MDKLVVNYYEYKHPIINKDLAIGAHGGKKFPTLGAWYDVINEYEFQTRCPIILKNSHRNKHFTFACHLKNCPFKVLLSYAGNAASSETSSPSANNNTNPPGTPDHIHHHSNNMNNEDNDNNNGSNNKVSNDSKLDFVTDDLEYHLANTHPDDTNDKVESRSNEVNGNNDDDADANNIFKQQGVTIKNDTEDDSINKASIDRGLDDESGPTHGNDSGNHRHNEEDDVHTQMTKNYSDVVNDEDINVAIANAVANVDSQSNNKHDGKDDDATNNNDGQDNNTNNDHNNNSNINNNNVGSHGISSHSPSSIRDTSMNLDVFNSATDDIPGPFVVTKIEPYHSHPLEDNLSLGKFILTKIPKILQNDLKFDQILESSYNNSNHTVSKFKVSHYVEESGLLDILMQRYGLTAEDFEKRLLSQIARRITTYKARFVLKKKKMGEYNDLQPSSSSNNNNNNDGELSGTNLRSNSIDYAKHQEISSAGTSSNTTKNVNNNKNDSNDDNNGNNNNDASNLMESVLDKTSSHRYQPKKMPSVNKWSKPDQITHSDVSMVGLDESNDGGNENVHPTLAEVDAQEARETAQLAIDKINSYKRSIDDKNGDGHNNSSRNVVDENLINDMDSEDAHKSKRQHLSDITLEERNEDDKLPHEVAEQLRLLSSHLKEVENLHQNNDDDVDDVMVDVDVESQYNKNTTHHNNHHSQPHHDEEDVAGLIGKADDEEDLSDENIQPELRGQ
# Experiment: PBM E-score (8-mer binding enrichment) (E-score (-0.5 to 0.5)); higher = stronger / more preferred TF binding
# Settings: protein concentration: 200 nM; construct: GST-full length
# How it was run: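 Masliner-normalised scans of fluorescent anti-GST signal were the basis for scoring. That signal came from GST-tagged yeast transcription factors applied at about 100-200 nM to double-stranded universal all-10-mer Agilent arrays on fresh or once-stripped slides. Each ungapped eight-base word, pooled with its reverse complement, received an E-score from the Universal PBM Analysis Suite.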
row,Sequence,PBM E-score
1,CTTCCGTA,0.238
2,ACGTAATC,-0.0476
3,ACTATCGG,-0.0681
4,CAATGTCA,0.235
5,CGGTGCCC,-0.156
6,AATTGAGT,0.00961
7,AAAAAAGT,0.0534
8,CTGTAACA,-0.187
9,AAGGTCAT,0.164
10,ACTCTGTG,-0.0599
11,CCACATCA,0.115
12,ATGGATTC,0.0308
13,AACCCCGG,0.00753
14,ACCCCTGA,-0.179
15,ACGACGGC,0.164
16,CACTACGG,0.135
17,ACATATAT,0.0645
18,TCCGATCA,-0.0305
19,GTCAGTGA,0.19
20,ATTGGACG,0.074
21,GTATATAA,0.286
22,AGAGAAAA,0.144
23,ACTTTGCC,-0.0733
24,AGTGACGG,0.1
25,CCCTTTGC,0.0184

# Quoted from the listing.
# Entry of ACGTAATC under PBM E-score: -0.0476
# Entry of ATGGATTC under PBM E-score: 0.0308
# Entry of ACGACGGC under PBM E-score: 0.164
# Entry of ACTTTGCC under PBM E-score: -0.0733
# Entry of GTCAGTGA under PBM E-score: 0.19
# Entry of CACTACGG under PBM E-score: 0.135
# Entry of ACTATCGG under PBM E-score: -0.0681

# Remaining list, next part.

row,Sequence,PBM E-score
1,ATTTCGGC,-0.124
2,AGCCAAGA,-0.079
3,CAGCTGCC,-0.242
4,AGTGTTTA,-0.00423
5,AGATAAAG,0.113
6,ACAATCCA,0.127
7,AACTTAGC,0.0723
8,ATGACTCG,0.137
9,ACACGAGC,0.148
10,GGATTGCC,-0.0515
11,ATTTAAAT,0.189
12,AATCGGGC,0.0396
13,ACCTTAAT,-0.0549
14,CAATTCAA,0.00215
15,CAAGCATG,0.204
16,CTAACGGC,0.181
17,CATTCGCG,0.0589
18,CGACGGGC,0.22
19,TAAGCATA,-0.0176
20,ATGAAGTC,0.0994
21,AATCCACG,0.164
22,GTAGGATA,0.104
23,ACGAGAAG,0.0925
24,CTAGTACC,-0.102
25,CGCCCGAC,-0.111

row,Sequence,PBM E-score
1,AAATGGTT,0.0299
2,AATATAAC,0.124
3,ATGGGCCA,-0.231
4,CAGTCCAA,-0.177
5,ACACGAGA,-0.0988
6,TACTACAA,0.134
7,AAGTGTTA,-0.161
8,ACCGAAAG,0.0179
9,AGACAGCA,0.0352
10,CATACTCG,-0.145
11,AATAAACC,-0.0327
12,TCGCCAGA,0.15
13,ATTAACGC,0.123
14,ACATAAAC,0.167
15,AGCGGACA,-0.115
16,TCACCGAA,0.0422
17,AATTAGCA,0.158
18,CTACTCGA,0.0303
19,AAAAAAGA,-0.00419
20,ACGTGATA,0.318
21,AGAGCACC,-0.24
22,ATTAACTC,0.168
23,TGGCGCAA,-0.257
24,GCCGTGAA,0.277
25,AGTCGACG,0.236

# Reformatted tab-delimited: entries from further up.
row	Sequence	PBM E-score
19	GTCAGTGA	0.19
20	ATTGGACG	0.074
21	GTATATAA	0.286

# Next entries follow:

row,Sequence,PBM E-score
1,AGGGTAGC,-0.185
2,AGATTAAG,0.0353
3,GGGTGAAA,0.0485
4,GGTGTCTA,-0.0372
5,GAGCGTCA,-0.0359
6,CGGTATGA,0.161
7,GAGCGAAC,-0.281
8,AGCCGAGC,-0.222
9,CATGCGTC,-0.0848
10,ATATCTCG,0.125
11,GTGTGCTA,-0.01
12,ATAACACC,0.0472
13,AAGAGTCA,-0.143
14,AATGAAAG,-0.0366
15,AGCGAGTG,-0.0199
16,TCAATACA,0.0233
17,GTTGACCA,0.105
18,AAGTTACT,0.0476
19,CCTAGAGG,-0.0425
20,ACTATACC,0.00419
21,CGTACGGA,0.355
22,ATAAGCAG,0.132
23,ACCCGGGC,-0.288
24,CGCGCGCA,0.118
25,ATCCTCGC,-0.251

row,Sequence,PBM E-score
1,GCACGTCC,0.0188
2,CACCCCGA,-0.158
3,TGTTCTAA,0.0159
4,AACGGGAC,-0.0167
5,TGAGAGAA,0.0455
6,AGACGGTC,0.14
7,CACGTACG,0.277
8,GTCACAGA,0.0859
9,ATAGCGAA,0.139
10,CCCTCTAA,-0.23
11,CAACTCGC,0.0334
12,CTTGTCCA,-0.0224
13,CAACAATC,0.024
14,ACCTAGAT,-0.0984
15,CGTCCGTA,0.119
16,CCAATACC,-0.104
17,GCACCGGA,-0.171
18,CGAGTGGA,-0.149
19,CTGTTTTA,-0.0343
20,CAACATGC,-0.0402
21,AAAAGGTC,-0.0335
22,TAGGCCGA,-0.106
23,CTTATTTA,-0.0114
24,AGATTCAC,-0.251
25,AACCAGCC,-0.0913

row,Sequence,PBM E-score
1,CGGCGCGC,-0.0194
2,ATCCAAAC,0.0146
3,AGTTCCAC,-0.0322
4,TATATGGA,0.0276
5,TACGCTAA,0.0245
6,ACGTGTTC,0.044
7,CATCAGCG,-0.00857
8,CAAAAAAA,0.168
9,CAATAACG,0.0921
10,CCGTAGAC,0.0491
11,ACCTTCCT,-0.262
12,AACCCCTC,-0.292
13,CGCTCGGA,-0.195
14,CAGTTATA,-0.00778
15,TAGTACCA,-0.0108
16,TCTGTGAA,0.0637
17,CCCGATAA,-0.0561
18,CCAAGTGG,-0.143
19,GTATTGCA,-0.143
20,TATATTCA,0.16
21,CAGGAACA,-0.122
22,CTAGACAA,-0.128
23,CTAGTCGC,-0.0471
24,AGGGGGGC,-0.324
25,GACGTGAA,0.175

row,Sequence,PBM E-score
1,AACTAGCC,-0.178
2,GAAGCGGC,0.0906
3,ACAGCAAG,-0.126
4,ACGGCCCC,-0.145
5,AATTTCAG,0.0263
6,AATAACCG,0.00299
7,ATTTACAA,0.0727
8,TCCGTCAA,0.246
9,ATAACTTG,0.0937
10,AAAACTTA,0.0148
11,AGCCAAGG,-0.205
12,CCTTGCCC,-0.27
13,TGTTGTAA,-0.0104
14,AGACTAGA,-0.26
15,TACATATA,0.281
16,TCACAGGA,0.00852
17,CCATCTTC,0.169
18,GCGGAACC,0.0321
19,ACGCTACA,-0.102
20,GGTCCGAA,-0.00922
21,ACACCAAC,-0.204
22,AATCCTTC,-0.0571
